Experimental findings from article PMC3567142 are described below.

By UniProt entry, the sequences of proteins in these tests, tags left out.
UniProt P35201: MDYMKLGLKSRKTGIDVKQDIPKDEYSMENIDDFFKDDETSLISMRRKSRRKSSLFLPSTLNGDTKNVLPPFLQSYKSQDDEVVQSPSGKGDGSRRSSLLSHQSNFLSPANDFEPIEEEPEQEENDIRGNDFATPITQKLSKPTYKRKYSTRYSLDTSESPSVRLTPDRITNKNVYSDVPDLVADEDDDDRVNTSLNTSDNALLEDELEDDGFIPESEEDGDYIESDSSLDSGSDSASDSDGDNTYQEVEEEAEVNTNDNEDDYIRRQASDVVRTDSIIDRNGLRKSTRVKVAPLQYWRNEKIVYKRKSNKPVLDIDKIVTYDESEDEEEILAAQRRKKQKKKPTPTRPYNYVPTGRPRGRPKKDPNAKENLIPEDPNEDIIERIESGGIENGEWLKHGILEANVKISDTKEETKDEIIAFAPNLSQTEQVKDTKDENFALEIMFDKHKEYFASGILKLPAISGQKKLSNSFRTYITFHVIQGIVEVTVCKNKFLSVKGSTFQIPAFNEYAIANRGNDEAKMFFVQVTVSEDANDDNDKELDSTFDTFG

These are yes or no findings as the source states them, for the method shown. Binding seen in cells or lysates may run through a third protein. Here binding means that the protein was enriched with, or labelled near, the bait; the list need not be complete. For some assays here: Sequences can lack the tags named with a protein.

The target of test [1] is T1, Mub1-Flag (budding yeast) (UniProt Q03162).
T1 sequence: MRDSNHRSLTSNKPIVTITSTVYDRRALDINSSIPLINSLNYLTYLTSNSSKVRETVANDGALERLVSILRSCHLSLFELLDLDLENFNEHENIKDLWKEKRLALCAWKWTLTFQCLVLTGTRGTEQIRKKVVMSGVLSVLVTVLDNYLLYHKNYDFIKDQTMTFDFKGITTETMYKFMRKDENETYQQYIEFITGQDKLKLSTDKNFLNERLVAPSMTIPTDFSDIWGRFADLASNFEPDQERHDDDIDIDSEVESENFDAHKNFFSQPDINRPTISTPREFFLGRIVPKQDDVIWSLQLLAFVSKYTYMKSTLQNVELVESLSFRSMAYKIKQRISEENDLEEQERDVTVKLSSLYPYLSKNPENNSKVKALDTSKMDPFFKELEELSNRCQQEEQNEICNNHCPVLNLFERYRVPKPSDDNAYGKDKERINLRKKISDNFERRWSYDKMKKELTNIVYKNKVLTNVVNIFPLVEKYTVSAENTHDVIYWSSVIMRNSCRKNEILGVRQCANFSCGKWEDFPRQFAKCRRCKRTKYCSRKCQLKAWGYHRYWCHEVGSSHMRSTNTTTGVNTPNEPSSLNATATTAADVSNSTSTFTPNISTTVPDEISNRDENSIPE
Description: affinity purification with mass spectrometry; Flag-tagged bait purified from budding yeast; associated proteins eluted with detergent and analysed with LTQ-Orbitrap.

Test [2] deals with CENP-C^Mif2-Flag (budding yeast) (UniProt P35201). The test is described as above.

On to CENP-C^Mif2 (from UniProt P35201 1-549), for which the binding entry in test [1] was “binds”.

B1: Mub1 (protein, UniProt Q03162 1-620)
chain: MRDSNHRSLTSNKPIVTITSTVYDRRALDINSSIPLINSLNYLTYLTSNSSKVRETVANDGALERLVSILRSCHLSLFELLDLDLENFNEHENIKDLWKEKRLALCAWKWTLTFQCLVLTGTRGTEQIRKKVVMSGVLSVLVTVLDNYLLYHKNYDFIKDQTMTFDFKGITTETMYKFMRKDENETYQQYIEFITGQDKLKLSTDKNFLNERLVAPSMTIPTDFSDIWGRFADLASNFEPDQERHDDDIDIDSEVESENFDAHKNFFSQPDINRPTISTPREFFLGRIVPKQDDVIWSLQLLAFVSKYTYMKSTLQNVELVESLSFRSMAYKIKQRISEENDLEEQERDVTVKLSSLYPYLSKNPENNSKVKALDTSKMDPFFKELEELSNRCQQEEQNEICNNHCPVLNLFERYRVPKPSDDNAYGKDKERINLRKKISDNFERRWSYDKMKKELTNIVYKNKVLTNVVNIFPLVEKYTVSAENTHDVIYWSSVIMRNSCRKNEILGVRQCANFSCGKWEDFPRQFAKCRRCKRTKYCSRKCQLKAWGYHRYWCHEVGSSHMRSTNTTTGVNTPNEPSSLNATATTAADVSNSTSTFTPNISTTVPDEISNRDENSIPE
For the molecule B1, the binding entry in test [2] is given as “binds”.
